# Laboratory results: PubChem BioAssay AID493014 (National Center for Advancing Translational Sciences (NCATS), 2011)
# Values joined by “and” are separate entries in the source; they are usually repeats but may differ in a detail not shown here. Identical values can stand only once. Some of the results follow. Shown are side measurements of this screen, not its main read-out; they come without a call. Most of these compounds were active or inconclusive in the main read-out, so they are no random draw. Potencies come from curve fits of mixed quality, noted in brackets.
# Experiment: qHTS Assay to Find Inhibitors of Chronic Active B-Cell Receptor Signaling
# Details: ABC-DLBCL IkBa-CBG/CBR reporter, luminescence ratio (green luciferase fused to IkBa over red control in TMD8 lymphoma cells), 4 h
# Summary of the method: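 Cell line TMD8 (human ABC DLBCL), stably expressing tet-inducible CBG68-IkBa fusion and CBR; IMDM/0.5% FBS; cpd up to 46 uM; dox induction, 4 h, 37C/5% CO2; dual luminescence; green/red ratio; MG132 control.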
# [1] = measured here: CBR red luminescence, cell number
# [2] = measured here: IkBa-CBG green luminescence
SMILES,AC50 [1],AC50 [2]
CCC(=O)NNc1ncnc2c1cnn2-c1ccccc1,"3.16 µM [falling, partial curve, poor fit]",–
COc1ccc(-c2nnc(SCC(=O)Nc3ncc(C)s3)n2-c2ccccc2)cc1OC,"0.708 µM [falling, full curve, poor fit]",–
CC1Cc2ccccc2N1CC(=O)NC(=O)NCc1ccco1 (configuration not stated),"3.66 µM [falling, single point]","5.8 µM [rising, partial curve, poor fit]"
COc1ccccc1N(CC(=O)NC1CCCCC1)C(=O)c1csnn1,"16.4 µM [falling, partial curve]",–
COC(=O)C1=C(C)N(Cc2ccccc2)C(=NCCc2ccccn2)N[C@H]1c1cccc(F)c1,"35.5 µM [falling, single point]",–
COc1ccccc1C(=O)NCC(c1cccnc1)N(C)C (configuration not stated),"12.6 µM [falling, single point]",–
O=c1oc2c3c4c(cc2s1)CCCN4CCC3,"0.82 µM [rising, full curve, poor fit]",–
COc1ccc(N2CC(C(=O)Nc3nc4ccc(F)cc4s3)CC2=O)c(OC)c1 (configuration not stated),"11.2 µM [falling, single point]",–
Cc1cccc2cc(CN(Cc3ccco3)C(=O)c3cccs3)c(=O)[nH]c12,"3.66 µM [rising, single point]",–
CCC(C)[C@@H](C(=O)Nc1ccc(OC)c(OC)c1)N1Cc2ccccc2C1=O (some centres not stated),"23.1 µM [falling, partial curve, poor fit]",–
Fc1cccc(Cl)c1CN1CCN(c2nc3ccccc3s2)CC1,"0.631 µM [rising, full curve]",–
CCOC(=O)CSc1nc2sc3c(c2c(=O)n1-c1ccccc1)CCN(C)C3,"17.8 µM [rising, partial curve, poor fit]",–
C=CCSc1nc2c(c(=O)[nH]c(=O)n2C)n1C(C)C,"32.6 µM [rising, single point]","20.6 µM [falling, partial curve, poor fit]"
COc1ccc(C(=O)c2cc([N+](=O)[O-])ccc2N2CCN(C)CC2)cc1,–,"12.6 µM [falling, single point]"
O=C(N/N=C/C(Cl)=C/c1ccccc1)c1ccccc1F,"3.98 µM [falling, partial curve]",–
O=C1CC(c2ccccc2)CC(O)=C1C=Nc1ccccc1Cl (configuration not stated),"9.2 µM [falling, partial curve]",–
O=C(Nc1nc(-c2ccccc2)cs1)C1CCCN(S(=O)(=O)c2ccccc2)C1 (configuration not stated),"1.26 µM [falling, full curve]",–
Cc1cc(N2CCN(c3cccc(C(F)(F)F)c3)CC2)n2nc(C)nc2n1,"0.0517 µM [rising, full curve, poor fit]",–
COc1cc2c(cc1OC)[C@@H]1O[C@](CCCCN3C(=O)c4ccccc4C3=O)(C2)Oc2cc(C)n(-c3ccccc3)c(=O)c21,–,"3.98 µM [rising, partial curve, poor fit]"
C/C(Cn1nnc([N+](=O)[O-])n1)=N\NC(=O)c1ccccc1,"7.08 µM [falling, full curve]",–
O=C(N/N=C/C(Br)=C\c1ccccc1)c1cccs1,"12.6 µM [falling, partial curve]",–

SMILES,AC50 [1],AC50 [2]
COc1cc2c(cc1OC)C1O[C@](CCCCN3C(=O)c4ccccc4C3=O)(C2)Oc2cc(C)n(Cc3ccccc3)c(=O)c21,"1.41 µM [rising, partial curve]",–
Cc1ccc(CSC(Nc2ccc(F)cc2)=C(C#N)C#N)cc1,"7.31 µM [falling, partial curve]",–
Cn1c(NN)nc2c1c(=O)n(Cc1ccccc1)c(=O)n2C,"10 µM [falling, partial curve, poor fit]",–
O=C(CCS(=O)(=O)Cc1ccc(Cl)cc1)NCCCN1CCN(c2ccccc2F)CC1,"20.6 µM [falling, single point]",–
Cc1ccc2sc(N(CCCN(C)C)C(=O)c3ccc(S(=O)(=O)N(C)C)cc3)nc2c1C,"12.6 µM [falling, partial curve]",–
COc1cccc(Nc2nc3ccc(OC)cc3s2)c1,"25.1 µM [falling, single point]",–
O=C(O)c1ccccc1NC(=S)NC(=O)c1cccc2ccccc12,"10 µM [falling, partial curve]",–
O=C(NCc1ccccn1)c1cc(-c2ccccc2)on1,"23.1 µM [falling, single point]",–
O=C(Nc1ccccc1)Nc1ccccc1NS(=O)(=O)c1cccs1,"0.0092 µM [rising, full curve, poor fit]",–
O=C1CN(C(=O)c2c(F)cccc2F)C(c2ccccc2)c2cc(Br)ccc2N1 (configuration not stated),"35.5 µM [falling, single point]",–
O=S(=O)(CCN1CCN(C(c2ccccc2)c2ccccc2)CC1)C(F)(F)F,"22.4 µM [falling, single point]",–
CCC(=O)N1CCN(c2ccc(NC(=O)COc3ccc(CC)cc3)cc2)CC1,"0.631 µM [falling, partial curve, poor fit]",–
COc1cc(NC(=O)Nc2cccc(Cl)c2)c(OC)cc1NC(=O)CN1CCCCC1,"0.731 µM [falling, partial curve, poor fit]",–
COc1ccc(/C=C/C(=O)N2CCCc3ccccc32)cc1,"29.1 µM [falling, single point]","6.51 µM [falling, partial curve, poor fit]"
Cc1nnc2ccc(-c3cccc(NS(=O)(=O)c4ccccc4[N+](=O)[O-])c3)nn12,–,"3.66 µM [falling, partial curve, poor fit]"
O=C(Nc1ccccc1)c1cc2ccccc2c(=O)s1,"29.1 µM [falling, single point]",–
Cc1cc(NC(=O)NC(=O)c2ccc(F)cc2F)n[nH]1,"4.47 µM [falling, partial curve]",–
Cc1cc2c(cc1S(=O)(=O)CCC(=O)N(C)C1CCCCC1)OCC(=O)N2,"22.4 µM [rising, single point]",–
CCCn1c(=O)c2ccccc2n2c(SCCOc3ccccc3F)nnc12,"32.6 µM [falling, single point]",–
O=C(N/N=C\C=C\c1ccc2c(c1)OCO2)c1ccc(F)cc1,"12.6 µM [falling, partial curve, poor fit]",–
CCN1C/C(=C/c2ccc(OC)c(O)c2)C(=O)/C(=C/c2ccc(OC)c(O)c2)C1,"35.5 µM [falling, single point]","3.16 µM [falling, single point]"

SMILES,AC50 [1],AC50 [2]
CCN1CCN(Cc2ccc(NC(=O)c3ccc(C)c(NC(=O)C(=O)c4c[nH]c5ccccc45)c3)cc2C(F)(F)F)CC1,"5.62 µM [falling, partial curve] and 2.82 µM [falling, full curve]","14.1 µM [rising, partial curve, poor fit]"
Cc1ccc(C(=O)CSc2nnc(-c3cccs3)n2C)o1,"0.326 µM [rising, partial curve, poor fit]",–
COc1cc(/C=N/NC(=O)c2cccnc2)ccc1OS(=O)(=O)c1cc(C)ccc1C,"23.1 µM [falling, single point]",–
CCOC(=O)c1c(-c2ccccc2)oc2ccc(O)c(CN(C)C)c12,"16.4 µM [falling, partial curve, poor fit]",–
NC(=O)c1cc([N+](=O)[O-])ccc1NCc1ccc(C(=O)O)cc1,"20.6 µM [falling, single point]",–
CC(C)c1csc2nc3n(c(=O)c12)CCCCC3,"35.5 µM [rising, single point]",–
Cc1cc(C)nc(N/N=C/C2=C(O)CC(c3ccc(F)cc3)CC2=O)n1 (configuration not stated),"2.82 µM [rising, partial curve]",–
O=c1[nH]c(/C=C/c2ccccn2)nc2ccccc12,"35.5 µM [falling, single point]",–
Cc1cc(C(=O)COc2ccc(Cl)cc2Br)c(C)n1C,"0.0891 µM [rising, full curve, poor fit]",–
N#C/C(=C\c1ccncc1)c1ccccn1,"7.08 µM [falling, partial curve, poor fit]",–
Cc1ccc2c(C)c(C(=O)N(Cc3ccccc3)C3CCS(=O)(=O)C3)oc2c1 (configuration not stated),"2.82 µM [rising, single point]",–
O=C1c2cccc3c([N+](=O)[O-])ccc(c23)C(=O)N1c1ccccn1,"12.6 µM [rising, partial curve]",–
COC(=O)c1cccc(NC(=O)CSc2nnc(COc3cccc(C)c3)n2C)c1,"20 µM [falling, single point]",–
COc1cc(/C=N/NC(=O)NC23CC4CC(CC(C4)C2)C3)ccc1O,–,"11.2 µM [falling, partial curve, poor fit]"
CN(C)CCNC(=O)c1cccc(S(=O)(=O)Nc2ccc(F)cc2)c1,"12.6 µM [falling, partial curve, poor fit]",–
S=c1ccc2ccccc2[nH]1,–,"25.1 µM [falling, single point]"
O=c1c2ccccc2nnn1COc1cccc(Cl)c1,"1.12 µM [falling, full curve, poor fit]",–
O=C(O)C1CCCCN1S(=O)(=O)c1ccccc1 (configuration not stated),"29.1 µM [rising, single point]",–
NC(=O)c1cc(-c2ccccc2)nc(N2CCOCC2)n1,"8.2 µM [falling, partial curve]",–
O=C(NC(=O)c1ccccc1)Nc1ccccc1,"3.55 µM [falling, full curve, poor fit]",–
